Results published in the supplement of paper PMC10735217.
Where a name gives a salt, the structure may show the parent alone. Some of the results follow. Repeats in this data set agree poorly, so a single value says little.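 In a drug-repurposing library screen, luminescence reads luciferase driven by eight TEAD-binding elements, stably integrated into human kidney-derived cells. Compounds scoring over five robust Z scores above the plate mean are called hits.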

System: HEK293A TEAD-LUC reporter
Assay: TEAD-luciferase reporter activity (YAP activation), robust Z score vs plate; higher = stronger YAP/TEAD activation
Settings: 24 h

Compound | TEAD-luciferase reporter activity (compound concentration: 200 nM) | TEAD-luciferase reporter activity (compound concentration: 2 uM) | TEAD-luciferase reporter activity (compound concentration: 10 uM)
CN/C1=N/N=C(C)/C(C)=N/N=C(/NC)[S][Cu][S]1 | inactive: 2.71 | inactive: 0.727 | inactive: 0.149
C[C@@H](N[C@H]1CCN(c2ccc(CC(=O)O)cc2)C1)c1cccc2ccccc12 | inactive: -1.15 | inactive: -0.259 | inactive: -1.31
COC(=O)c1ccc(OC(=O)CCCCCCC(=O)NO)cc1 [Methylparaben suberohydroxamic acid phenyl ester] | inactive: 0.0516 | inactive: 0.131 | inactive: -0.278
CCCCOC(=O)N1CCN(C(=O)C(CP(=O)(OCOC(=O)OC(C)C)OCOC(=O)OC(C)C)NC(=O)c2cc(N3CCC(OC)C3)nc(-c3ccccc3)n2)CC1 (centres undefined) | inactive: -0.827 | inactive: -1.01 | inactive: -0.444
CC1(C)CCC(NC(=O)[C@@H](N)CCC(=O)O)CC1 | inactive: -0.358 | inactive: -1.52 | inactive: -0.853
CS(=O)(=O)c1ccc(Cn2c3c(c4cc(F)cc(F)c42)CCCC3CC(=O)O)cc1 (centres undefined) | inactive: -0.559 | inactive: -1.05 | inactive: -1.33
CSC1SC[C@H]2C(=O)N(C)[C@@H](C(C)C)C(=O)OC[C@@H](NC(=O)c3cnc4ccccc4n3)C(=O)N[C@@H](C)C(=O)N(C)[C@H]1C(=O)N(C)[C@@H](C(C)C)C(=O)OC[C@@H](NC(=O)c1cnc3ccccc3n1)C(=O)N[C@@H](C)C(=O)N2C (some centres undefined) [Echinomycin] | inactive: -0.821 | inactive: -1.33 | inactive: -1.03
C/N=C(/Cc1ccc2ccccc2c1)NC | inactive: -0.809 | inactive: -1.73 | inactive: 0.252
COCC1=C(C(=O)OC(C)OC(=O)OC(C)C)N2C(=O)[C@@H](NC(=O)/C(=N\OC)c3csc(N)n3)[C@H]2SC1 (some centres undefined) [cefpodoxime, MiddleBrook] | – | inactive: -0.699 | –
COCC1=C(C(=O)OC(C)OC(=O)OC(C)C)N2C(=O)[C@@H](NC(=O)/C(=N\OC)c3csc(N)n3)[C@H]2SC1 (some centres undefined) | inactive: -0.91 | – | active: 13.7
CCOC(=O)c1ccc(N)cc1 [benzocaine, Arbor Pharmaceuticals] | inactive: -0.886 | inactive: -0.66 | inactive: 1.75
CCc1c(O)cc(O)c(C(=O)c2ccc(OCCN3CCOCC3)c(OC)c2)c1CC(=O)N(CCOC)CCOC | inactive: -0.76 | inactive: -0.179 | inactive: -2.58
CC(C)c1noc(N2CCC(COc3ccc(-c4ccc(S(C)(=O)=O)cc4)nc3)CC2)n1 | inactive: -0.587 | inactive: -0.973 | inactive: -0.134
CC[C@@H]1OC(=O)[C@H](C)[C@H](O[C@H]2CC(C)(OC)[C@@H](O)C(C)O2)[C@@H](C)[C@H](O[C@@H]2OC(C)CC(N(C)C)C2O)C(C)(OC)C[C@H](C)/C(=N\OC)[C@H](C)[C@@H](O)C1(C)O (some centres undefined) | inactive: -1.23 | inactive: -0.95 | inactive: -0.534
CCOC(=O)COc1ccc2c(C)c(CCN(CC)CC)c(=O)oc2c1Cl [cloricromene] | inactive: -0.869 | inactive: -0.446 | inactive: -1.36
O=C(NCCN1CCN(c2cccc3c2OC[C@H](CO)O3)CC1)c1ccc(F)cc1 | inactive: -0.882 | inactive: -0.17 | inactive: 0.262
CCCN(CCC)c1cc(C)nc2c(-c3cnc(N(C)C)cc3C)c(C)nn12 | inactive: 0.45 | inactive: -0.977 | inactive: -0.855
CCCc1c2nc(C(=O)O)cc(NC)c2cc2c(=O)cc(C(=O)O)oc12 | inactive: 1.84 | inactive: -1.09 | inactive: -0.806
CN(C)C1CCN(C(=O)c2ccc(NC(=O)Nc3ccc(-c4nc(N5CCOCC5)nc(N5CCOCC5)n4)cc3)cc2)CC1 [gedatolisib] | inactive: -2.01 | inactive: -1.16 | inactive: 0.236
O=c1[nH]c2ccccc2n1CCN1CCN(c2cccc(C(F)(F)F)c2)CC1 [Flibanserin] | inactive: -2.46 | inactive: 0.981 | inactive: -0.0168
CNCc1cc(-c2ccccc2F)n(S(=O)(=O)c2cccnc2)c1 [vonoprazan fumarate] | inactive: -2.11 | inactive: -1.77 | inactive: 0.13
CC(C)CC(N)C(=O)NC(Cc1ccc(OCc2ccccc2)cc1)C(=O)NC(CCC(N)=O)C(=O)NC(CC(C)C)C(N)=O (centres undefined) | inactive: -3.33 | inactive: -0.588 | inactive: 2.4
CNC(=O)Cc1ccc2ccn(C3CCN(CCc4ccccc4F)CC3)c2c1 | inactive: -1.03 | inactive: -1.28 | inactive: -0.104
CCN(CC)c1nccc(NCc2ccc(CNc3nc(Cl)ncc3F)cc2)n1 | inactive: -1.88 | inactive: -1.02 | inactive: 0.164
CC(C)NC(=O)NC1CC2(CCN(C(=O)c3ccc4[nH]ccc4c3)CC2)Oc2ccccc21 (centres undefined) | inactive: -1.94 | – | inactive: 0.688
CN1C2CCC1CN(c1cc3c(cc1F)c(=O)c(C(=O)O)cn3C1CC1)C2 | inactive: -0.0266 | inactive: -0.113 | inactive: 0.156

As entered above.
CCc1c(O)cc(O)c(C(=O)c2ccc(OCCN3CCOCC3)c(OC)c2)c1CC(=O)N(CCOC)CCOC | TEAD-luciferase reporter activity (compound concentration: 200 nM): inactive: -0.76
CCOC(=O)c1ccc(N)cc1 [benzocaine, Arbor Pharmaceuticals] | TEAD-luciferase reporter activity (compound concentration: 200 nM): inactive: -0.886
